Source: doi:10.1101/2021.08.26.457770 (bioRxiv, 2021)
Results are given in words; binding and its absence hold for the method and conditions named. Some results given as binding are weak or reduced against the parent protein; the word gives no strength.

The chains behind the UniProt entries cited, without tags or fusion partners.
UniProt P0AFZ3: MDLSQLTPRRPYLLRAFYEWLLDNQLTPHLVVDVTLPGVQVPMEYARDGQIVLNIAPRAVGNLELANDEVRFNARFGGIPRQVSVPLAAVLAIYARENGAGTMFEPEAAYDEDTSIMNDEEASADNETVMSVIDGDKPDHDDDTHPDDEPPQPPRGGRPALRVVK

Legend:
[1] = target: eGFP-SENYALAA (Escherichia coli); experiment: native gel or EMSA
[2] = target: eGFP-AANDENY (Escherichia coli); experiment: MST
[3] = target: eGFP-SENYALAA (Escherichia coli); experiment: MST
[4] = target: eGFP-… (Escherichia coli); experiment: MST

“SspB protein (ClpX adaptor) (from UniProt P0AFZ3 1-165)” was tested. Which binding [1] did it give?
Its binding is “no binding (tested: 8 µM each)”.

And the binding [2]?
The binding was “binds”.

And the binding [3]?
The binding was “no binding (tested: SspB up to 122 µM)”.

And the binding [4]?
Its binding is “binds”.
